Results are given in words; binding and its absence hold for the method and conditions named. In cells and extracts the contact can be indirect. Here binding means that the protein was enriched with, or labelled near, the bait; the list need not be complete. Sequences can lack the tags named with a protein.
Legend:
[1] = biological target: T1, HaloTag fusion of full-length mouse FCHo2 (amino acids 1-809) (M. musculus) (UniProt Q3UQN2); assay: affinity purification with mass spectrometry; HaloTag fusion baits expressed in HEK293T cells; HaloLink magnetic beads; release with AcTEV protease; TCA precipitation; MudPIT; proteins also found in the HaloTag-alone control removed
T1 sequence: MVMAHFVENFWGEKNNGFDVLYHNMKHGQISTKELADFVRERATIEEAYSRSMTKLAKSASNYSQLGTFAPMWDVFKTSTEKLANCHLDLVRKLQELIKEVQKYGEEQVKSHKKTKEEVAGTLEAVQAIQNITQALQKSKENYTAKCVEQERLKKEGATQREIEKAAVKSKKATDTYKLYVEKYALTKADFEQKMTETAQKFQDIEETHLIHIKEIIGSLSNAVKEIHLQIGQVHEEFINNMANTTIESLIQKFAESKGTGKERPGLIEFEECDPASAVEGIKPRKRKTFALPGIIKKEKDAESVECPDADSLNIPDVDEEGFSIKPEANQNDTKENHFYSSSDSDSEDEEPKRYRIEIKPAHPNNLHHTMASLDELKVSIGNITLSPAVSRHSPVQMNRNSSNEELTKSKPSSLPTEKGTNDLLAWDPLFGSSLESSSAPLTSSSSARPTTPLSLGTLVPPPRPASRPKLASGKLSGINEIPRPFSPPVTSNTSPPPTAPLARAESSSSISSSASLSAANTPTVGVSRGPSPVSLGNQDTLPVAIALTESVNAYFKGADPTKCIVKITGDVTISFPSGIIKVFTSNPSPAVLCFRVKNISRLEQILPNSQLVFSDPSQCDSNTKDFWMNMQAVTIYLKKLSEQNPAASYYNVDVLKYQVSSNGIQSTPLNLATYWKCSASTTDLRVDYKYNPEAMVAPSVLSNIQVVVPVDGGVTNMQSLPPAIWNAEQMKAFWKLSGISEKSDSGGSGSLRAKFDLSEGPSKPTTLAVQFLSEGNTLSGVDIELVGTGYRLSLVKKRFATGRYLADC

[2] = biological target: T2, HaloTag fusion of mouse FCHo2 without the F-BAR domain (amino acids 263-809) (M. musculus) (UniProt Q3UQN2); assay: as above
T2 sequence: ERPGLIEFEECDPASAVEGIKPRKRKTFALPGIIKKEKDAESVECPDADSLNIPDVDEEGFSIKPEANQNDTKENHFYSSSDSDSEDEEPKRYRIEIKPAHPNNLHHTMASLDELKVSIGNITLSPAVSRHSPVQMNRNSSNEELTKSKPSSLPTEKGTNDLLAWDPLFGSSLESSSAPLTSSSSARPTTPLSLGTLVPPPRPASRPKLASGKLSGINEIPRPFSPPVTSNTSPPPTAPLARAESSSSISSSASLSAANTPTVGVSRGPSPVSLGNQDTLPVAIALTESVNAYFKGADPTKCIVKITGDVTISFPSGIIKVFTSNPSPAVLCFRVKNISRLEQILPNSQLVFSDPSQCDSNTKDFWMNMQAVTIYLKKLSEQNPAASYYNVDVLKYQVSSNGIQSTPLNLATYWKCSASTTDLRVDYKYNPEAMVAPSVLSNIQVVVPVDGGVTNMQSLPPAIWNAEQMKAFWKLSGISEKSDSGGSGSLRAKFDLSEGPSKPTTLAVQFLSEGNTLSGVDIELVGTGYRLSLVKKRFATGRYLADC

B1: Epidermal growth factor receptor substrate 15 (EPS15), endogenous human (protein, UniProt P42566 1-896)
chain: MAAAAQLSLTQLSSGNPVYEKYYRQVDTGNTGRVLASDAAAFLKKSGLPDLILGKIWDLADTDGKGILNKQEFFVALRLVACAQNGLEVSLSSLNLAVPPPRFHDTSSPLLISGTSAAELPWAVKPEDKAKYDAIFDSLSPVNGFLSGDKVKPVLLNSKLPVDILGRVWELSDIDHDGMLDRDEFAVAMFLVYCALEKEPVPMSLPPALVPPSKRKTWVVSPAEKAKYDEIFLKTDKDMDGFVSGLEVREIFLKTGLPSTLLAHIWSLCDTKDCGKLSKDQFALAFHLISQKLIKGIDPPHVLTPEMIPPSDRASLQKNIIGSSPVADFSAIKELDTLNNEIVDLQREKNNVEQDLKEKEDTIKQRTSEVQDLQDEVQRENTNLQKLQAQKQQVQELLDELDEQKAQLEEQLKEVRKKCAEEAQLISSLKAELTSQESQISTYEEELAKAREELSRLQQETAELEESVESGKAQLEPLQQHLQDSQQEISSMQMKLMEMKDLENHNSQLNWCSSPHSILVNGATDYCSLSTSSSETANLNEHVEGQSNLESEPIHQESPARSSPELLPSGVTDENEVTTAVTEKVCSELDNNRHSKEEDPFNVDSSSLTGPVADTNLDFFQSDPFVGSDPFKDDPFGKIDPFGGDPFKGSDPFASDCFFRQSTDPFATSSTDPFSAANNSSITSVETLKHNDPFAPGGTVVAASDSATDPFASVFGNESFGGGFADFSTLSKVNNEDPFRSATSSSVSNVVITKNVFEETSVKSEDEPPALPPKIGTPTRPCPLPPGKRSINKLDSPDPFKLNDPFQPFPGNDSPKEKDPEIFCDPFTSATTTTNKEADPSNFANFSAYPSEEDMIEWAKRESEREEEQRLARLNQQEQEDLELAIALSKSEISEA
In the case of B1, the binding [1] is reported as “binds” and the binding [2] is reported as “binds”.
